# Assay: bitterness of amisulpride quantified by a panel of 6 individuals
# Conditions: tablet
# Procedure: In order to be able to quantify the magnitude of this bitterness, a panel of 6 individuals made it possible to find that the bitterness of amisulpride is detected with a tablet containing 1 mg of amisulpride that can be released in the mouth. This bitterness becomes unacceptable when the tablet contains 8 mg of amisulpride that can be released in the mouth.
compound,measurement,value
"CCN1CCCC1CNC(=O)c1cc(S(=O)(=O)CC)c(N)cc1OC (racemic) [amisulpride, 4-amino-N-[(1-ethyl-2-pyrrolidin-yl)methyl]-5-(ethylsulfonyl)-2-methoxybenzamide]",amount of amisulpride releasable in the mouth at which bitterness becomes unacceptable,8 mg
same,amount of amisulpride releasable in the mouth at which bitterness is detected,1 mg
